Some of the results follow.
Columns and labels:
Test in all cases: log2 fold change, soluble protein after heating vs DMSO (PISA); higher = thermal stabilisation; K562 cells, 10 uM, 30 min; active = over 0.2 and 3.5 SD of the protein, either way, in both replicates (recomputed)
saracatinib = compound: CN1CCN(CCOc2cc(OC3CCOCC3)c3c(Nc4c(Cl)ccc5c4OCO5)ncnc3c2)CC1 [saracatinib]
Procedure, shortened: (§1)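 K562 cells at 2×10^6 cells/mL were treated with 10 μM compound for 30 min. Aliquots were heated for 3 min across 48°C-58°C, pooled, and extracted in PBS with 0.5% NP-40 at 4°C; soluble protein was the supernatant after 21,000xg for 90 min. Soluble protein was quantified by TMTpro 16plex LC-MS/MS with channel sums equalised, and reported as log2 fold change in thermal stability against DMSO controls, with values from duplicates.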

Protein sequences, listed by entry. Tags and fused reporters are not part of them. Lines headed by an entry give the natural chain unless they say otherwise; changes in a name come on top.
UniProt Q9Y3I0: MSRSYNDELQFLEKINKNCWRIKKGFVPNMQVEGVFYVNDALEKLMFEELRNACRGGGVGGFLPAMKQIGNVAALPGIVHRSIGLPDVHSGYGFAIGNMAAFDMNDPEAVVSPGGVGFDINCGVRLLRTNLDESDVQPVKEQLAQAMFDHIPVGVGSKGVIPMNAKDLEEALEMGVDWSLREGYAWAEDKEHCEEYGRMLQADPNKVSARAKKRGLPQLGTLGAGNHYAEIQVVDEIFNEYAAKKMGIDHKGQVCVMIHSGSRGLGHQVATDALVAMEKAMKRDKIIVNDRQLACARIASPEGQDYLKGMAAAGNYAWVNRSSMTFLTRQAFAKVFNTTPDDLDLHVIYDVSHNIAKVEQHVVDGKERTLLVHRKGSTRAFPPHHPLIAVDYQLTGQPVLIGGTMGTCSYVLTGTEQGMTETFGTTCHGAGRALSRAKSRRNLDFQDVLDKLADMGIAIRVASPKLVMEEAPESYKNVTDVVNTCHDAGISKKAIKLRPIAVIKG
UniProt O94855: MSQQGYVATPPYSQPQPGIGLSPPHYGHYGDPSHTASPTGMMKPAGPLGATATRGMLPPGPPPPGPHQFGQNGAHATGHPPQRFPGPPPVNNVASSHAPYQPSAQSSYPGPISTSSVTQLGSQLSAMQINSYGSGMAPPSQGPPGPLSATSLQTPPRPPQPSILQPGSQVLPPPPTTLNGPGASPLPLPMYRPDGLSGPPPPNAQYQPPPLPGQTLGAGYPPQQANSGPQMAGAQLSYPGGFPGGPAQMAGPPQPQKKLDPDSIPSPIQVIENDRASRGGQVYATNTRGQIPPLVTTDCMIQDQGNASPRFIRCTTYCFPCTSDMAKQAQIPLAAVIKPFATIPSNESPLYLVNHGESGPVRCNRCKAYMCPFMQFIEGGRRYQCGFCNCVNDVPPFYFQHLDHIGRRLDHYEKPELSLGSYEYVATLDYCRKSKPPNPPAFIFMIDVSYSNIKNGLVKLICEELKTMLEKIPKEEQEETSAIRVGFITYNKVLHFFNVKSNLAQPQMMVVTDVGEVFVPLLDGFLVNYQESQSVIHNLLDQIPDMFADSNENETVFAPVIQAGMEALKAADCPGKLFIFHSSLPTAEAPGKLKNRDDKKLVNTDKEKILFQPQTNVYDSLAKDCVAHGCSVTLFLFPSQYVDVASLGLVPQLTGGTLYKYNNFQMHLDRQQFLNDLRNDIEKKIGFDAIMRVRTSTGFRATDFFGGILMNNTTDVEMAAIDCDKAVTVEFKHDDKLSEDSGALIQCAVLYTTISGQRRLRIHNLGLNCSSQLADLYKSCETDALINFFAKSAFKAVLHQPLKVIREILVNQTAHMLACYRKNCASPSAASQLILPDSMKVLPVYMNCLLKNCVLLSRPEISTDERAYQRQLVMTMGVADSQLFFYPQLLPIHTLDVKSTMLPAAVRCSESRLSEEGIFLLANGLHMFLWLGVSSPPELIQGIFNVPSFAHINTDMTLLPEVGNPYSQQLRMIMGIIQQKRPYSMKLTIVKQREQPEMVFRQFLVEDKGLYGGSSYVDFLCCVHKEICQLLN
UniProt Q969E2: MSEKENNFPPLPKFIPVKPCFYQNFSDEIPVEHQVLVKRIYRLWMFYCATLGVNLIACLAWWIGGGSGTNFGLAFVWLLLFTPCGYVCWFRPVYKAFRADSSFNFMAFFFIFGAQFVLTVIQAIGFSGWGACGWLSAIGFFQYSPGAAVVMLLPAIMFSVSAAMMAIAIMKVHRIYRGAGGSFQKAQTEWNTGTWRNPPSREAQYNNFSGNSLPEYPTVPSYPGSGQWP
UniProt Q9NRP4: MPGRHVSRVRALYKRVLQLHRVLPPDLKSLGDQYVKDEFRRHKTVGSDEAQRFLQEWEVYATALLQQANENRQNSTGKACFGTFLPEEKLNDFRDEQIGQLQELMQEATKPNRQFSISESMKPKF
UniProt Q9NZJ4: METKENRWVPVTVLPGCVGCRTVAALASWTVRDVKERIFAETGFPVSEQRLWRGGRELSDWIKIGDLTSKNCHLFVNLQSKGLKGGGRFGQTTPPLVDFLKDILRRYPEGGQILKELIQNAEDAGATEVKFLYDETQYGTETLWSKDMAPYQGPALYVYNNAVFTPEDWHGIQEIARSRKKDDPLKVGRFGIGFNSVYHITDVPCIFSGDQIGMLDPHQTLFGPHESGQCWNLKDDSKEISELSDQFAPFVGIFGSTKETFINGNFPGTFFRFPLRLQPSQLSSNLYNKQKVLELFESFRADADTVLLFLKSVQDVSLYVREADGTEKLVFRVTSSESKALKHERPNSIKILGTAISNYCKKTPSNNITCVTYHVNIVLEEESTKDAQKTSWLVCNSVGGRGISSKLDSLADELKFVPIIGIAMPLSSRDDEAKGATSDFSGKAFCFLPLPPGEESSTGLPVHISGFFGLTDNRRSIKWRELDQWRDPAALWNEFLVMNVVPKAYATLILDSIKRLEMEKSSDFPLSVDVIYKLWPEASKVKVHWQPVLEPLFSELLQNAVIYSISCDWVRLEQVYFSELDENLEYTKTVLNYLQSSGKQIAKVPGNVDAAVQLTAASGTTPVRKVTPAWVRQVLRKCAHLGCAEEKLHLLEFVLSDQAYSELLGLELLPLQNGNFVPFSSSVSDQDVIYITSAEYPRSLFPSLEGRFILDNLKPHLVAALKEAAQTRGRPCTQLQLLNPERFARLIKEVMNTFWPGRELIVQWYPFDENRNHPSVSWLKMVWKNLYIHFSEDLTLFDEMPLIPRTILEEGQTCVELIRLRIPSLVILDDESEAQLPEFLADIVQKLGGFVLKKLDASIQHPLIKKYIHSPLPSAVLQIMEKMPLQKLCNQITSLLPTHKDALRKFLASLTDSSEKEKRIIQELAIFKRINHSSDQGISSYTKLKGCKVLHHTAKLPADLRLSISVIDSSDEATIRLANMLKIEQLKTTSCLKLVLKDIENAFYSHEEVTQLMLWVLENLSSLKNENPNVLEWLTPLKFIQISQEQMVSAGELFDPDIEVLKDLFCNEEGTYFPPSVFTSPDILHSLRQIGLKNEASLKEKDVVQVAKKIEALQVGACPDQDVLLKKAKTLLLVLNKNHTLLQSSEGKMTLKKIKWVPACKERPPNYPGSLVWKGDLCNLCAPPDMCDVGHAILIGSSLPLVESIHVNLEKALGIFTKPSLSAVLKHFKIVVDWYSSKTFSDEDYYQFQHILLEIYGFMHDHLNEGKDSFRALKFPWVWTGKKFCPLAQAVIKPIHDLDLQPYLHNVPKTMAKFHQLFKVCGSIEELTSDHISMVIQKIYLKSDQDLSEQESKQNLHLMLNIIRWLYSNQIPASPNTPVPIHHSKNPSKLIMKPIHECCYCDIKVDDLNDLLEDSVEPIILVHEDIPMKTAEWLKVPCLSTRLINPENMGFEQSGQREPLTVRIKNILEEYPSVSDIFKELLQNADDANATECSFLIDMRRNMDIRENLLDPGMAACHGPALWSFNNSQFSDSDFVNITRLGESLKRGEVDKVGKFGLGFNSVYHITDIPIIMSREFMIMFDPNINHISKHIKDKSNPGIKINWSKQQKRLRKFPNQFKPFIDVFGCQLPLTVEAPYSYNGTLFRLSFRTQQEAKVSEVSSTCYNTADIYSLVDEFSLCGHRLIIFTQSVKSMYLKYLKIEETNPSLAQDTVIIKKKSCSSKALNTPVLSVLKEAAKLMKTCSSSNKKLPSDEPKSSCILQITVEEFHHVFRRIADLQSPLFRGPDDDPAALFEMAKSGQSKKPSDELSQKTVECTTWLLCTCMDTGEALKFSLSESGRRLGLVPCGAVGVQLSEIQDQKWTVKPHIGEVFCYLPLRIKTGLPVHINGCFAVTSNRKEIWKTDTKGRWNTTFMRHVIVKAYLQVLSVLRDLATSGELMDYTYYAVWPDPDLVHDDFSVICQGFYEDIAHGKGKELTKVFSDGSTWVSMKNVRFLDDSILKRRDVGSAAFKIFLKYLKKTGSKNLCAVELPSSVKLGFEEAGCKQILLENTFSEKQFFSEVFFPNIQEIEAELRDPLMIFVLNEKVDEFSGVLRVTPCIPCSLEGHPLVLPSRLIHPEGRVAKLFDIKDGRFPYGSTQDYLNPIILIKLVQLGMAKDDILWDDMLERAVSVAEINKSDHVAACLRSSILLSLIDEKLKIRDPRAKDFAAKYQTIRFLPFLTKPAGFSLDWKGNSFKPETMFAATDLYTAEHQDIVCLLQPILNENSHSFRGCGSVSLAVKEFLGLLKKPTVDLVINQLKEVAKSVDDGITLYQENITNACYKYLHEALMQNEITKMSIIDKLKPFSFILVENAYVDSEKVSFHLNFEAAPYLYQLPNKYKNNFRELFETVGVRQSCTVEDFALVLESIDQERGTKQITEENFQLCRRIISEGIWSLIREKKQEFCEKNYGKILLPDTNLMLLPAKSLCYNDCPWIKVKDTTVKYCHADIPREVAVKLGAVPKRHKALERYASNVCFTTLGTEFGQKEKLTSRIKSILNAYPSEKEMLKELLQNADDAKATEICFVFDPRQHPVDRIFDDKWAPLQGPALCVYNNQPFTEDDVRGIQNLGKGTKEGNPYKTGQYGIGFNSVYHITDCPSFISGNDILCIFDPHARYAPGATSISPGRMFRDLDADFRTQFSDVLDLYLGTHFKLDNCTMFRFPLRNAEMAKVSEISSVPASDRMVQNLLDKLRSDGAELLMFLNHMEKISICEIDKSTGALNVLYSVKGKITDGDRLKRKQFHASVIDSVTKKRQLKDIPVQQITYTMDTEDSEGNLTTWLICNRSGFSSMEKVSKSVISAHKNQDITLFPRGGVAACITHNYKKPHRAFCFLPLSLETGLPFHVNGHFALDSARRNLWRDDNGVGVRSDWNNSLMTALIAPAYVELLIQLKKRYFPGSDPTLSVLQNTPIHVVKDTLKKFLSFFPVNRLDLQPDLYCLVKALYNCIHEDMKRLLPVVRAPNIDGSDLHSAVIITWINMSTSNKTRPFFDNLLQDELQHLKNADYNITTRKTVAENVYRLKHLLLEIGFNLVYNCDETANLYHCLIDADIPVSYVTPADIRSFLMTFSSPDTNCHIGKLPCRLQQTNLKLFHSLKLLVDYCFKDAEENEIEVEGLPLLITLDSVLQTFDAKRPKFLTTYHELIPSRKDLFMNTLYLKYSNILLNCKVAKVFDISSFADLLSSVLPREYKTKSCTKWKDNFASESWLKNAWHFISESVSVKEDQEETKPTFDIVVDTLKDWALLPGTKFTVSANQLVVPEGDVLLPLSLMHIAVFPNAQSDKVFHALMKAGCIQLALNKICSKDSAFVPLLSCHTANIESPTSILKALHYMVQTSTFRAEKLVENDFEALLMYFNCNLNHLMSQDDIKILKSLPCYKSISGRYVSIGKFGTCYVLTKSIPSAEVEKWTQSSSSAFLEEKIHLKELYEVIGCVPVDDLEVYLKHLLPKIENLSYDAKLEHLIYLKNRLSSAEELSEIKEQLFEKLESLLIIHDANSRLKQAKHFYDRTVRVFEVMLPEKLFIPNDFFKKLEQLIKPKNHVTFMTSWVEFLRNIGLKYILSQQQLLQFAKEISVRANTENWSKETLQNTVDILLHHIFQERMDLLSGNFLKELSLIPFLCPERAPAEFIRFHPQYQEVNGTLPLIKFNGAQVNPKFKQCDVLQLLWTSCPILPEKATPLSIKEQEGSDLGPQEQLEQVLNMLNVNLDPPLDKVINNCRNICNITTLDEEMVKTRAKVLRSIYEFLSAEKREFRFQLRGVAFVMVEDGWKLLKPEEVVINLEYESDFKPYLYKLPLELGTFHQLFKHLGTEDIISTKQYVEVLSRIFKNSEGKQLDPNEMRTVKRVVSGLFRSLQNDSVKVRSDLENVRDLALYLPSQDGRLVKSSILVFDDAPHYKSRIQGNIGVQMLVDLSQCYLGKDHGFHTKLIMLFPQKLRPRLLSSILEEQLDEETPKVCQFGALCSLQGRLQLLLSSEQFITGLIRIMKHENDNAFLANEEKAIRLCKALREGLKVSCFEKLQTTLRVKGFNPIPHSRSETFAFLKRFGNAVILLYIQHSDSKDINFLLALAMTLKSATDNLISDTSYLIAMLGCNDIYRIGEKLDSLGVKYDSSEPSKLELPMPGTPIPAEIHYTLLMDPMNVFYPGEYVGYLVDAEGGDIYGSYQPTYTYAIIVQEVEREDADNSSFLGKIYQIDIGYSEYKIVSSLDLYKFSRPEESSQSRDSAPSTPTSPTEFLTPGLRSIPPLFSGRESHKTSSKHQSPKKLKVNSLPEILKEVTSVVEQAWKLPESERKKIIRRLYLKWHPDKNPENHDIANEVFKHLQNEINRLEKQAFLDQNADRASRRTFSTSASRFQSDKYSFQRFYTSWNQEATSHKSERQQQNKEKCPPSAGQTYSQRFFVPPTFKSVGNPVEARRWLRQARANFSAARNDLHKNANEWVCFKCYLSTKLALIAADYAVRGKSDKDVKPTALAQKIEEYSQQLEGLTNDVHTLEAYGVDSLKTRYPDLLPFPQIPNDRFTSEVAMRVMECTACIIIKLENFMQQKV
UniProt P25815: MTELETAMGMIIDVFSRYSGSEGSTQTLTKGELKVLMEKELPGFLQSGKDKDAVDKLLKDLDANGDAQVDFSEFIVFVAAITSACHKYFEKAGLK

sotrastaurin = compound: CN1CCN(c2nc(C3=C(c4c[nH]c5ccccc45)C(=O)NC3=O)c3ccccc3n2)CC1 [sotrastaurin]
Procedure, shortened: as §1

alvocidib = compound: CN1CC[C@H](c2c(O)cc(O)c3c(=O)cc(-c4ccccc4Cl)oc23)[C@H](O)C1 [alvocidib]
Procedure, shortened: as §1

Tubastatin A = compound: CN1CCc2c(c3ccccc3n2Cc2ccc(C(=O)NO)cc2)C1 [Tubastatin A]
Procedure, shortened: as §1

[1] = compound: CNC(=O)C1=CC=CC=C1NC2=NC(=NC=C2Cl)NC3=C(C=C(C=C3)N4CCOCC4)OC
Procedure, shortened: as §1

defactinib = compound: CNC(=O)c1ccc(Nc2ncc(C(F)(F)F)c(NCc3nccnc3N(C)S(C)(=O)=O)n2)cc1 [defactinib]
Procedure, shortened: as §1

rucaparib = compound: CNCc1ccc(-c2[nH]c3cc(F)cc4c3c2CCNC4=O)cc1 [rucaparib]
Procedure, shortened: as §1

[2] = compound: CNc1nc(-c2ccc3c(N)n[nH]c3c2)cc(N2C[C@@H](C(=O)NC3CCCCC3)CC[C@H]2C)n1
Procedure, shortened: as §1

encorafenib = compound: COC(=O)N[C@@H](C)CNc1nccc(-c2cn(C(C)C)nc2-c2cc(Cl)cc(NS(C)(=O)=O)c2F)n1 [encorafenib]
Procedure, shortened: as §1

[3] = compound: COC(=O)[C@H](CCSC)NC(=O)C1=C(C=C(C=C1)NC[C@H](CS)N)C2=CC=CC=C2
Procedure, shortened: as §1

[4] = compound: COC1=CC=C(C=C1)CN2C=CC3=C2C=C(C=C3)C(=O)NO
Procedure, shortened: as §1

filanesib = compound: CON(C)C(=O)N1N=C(c2cc(F)ccc2F)S[C@@]1(CCCN)c1ccccc1 [filanesib]
Procedure, shortened: as §1

zotarolimus = compound: CO[C@H]1C[C@@H]2CC[C@@H](C)[C@@](O)(O2)C(=O)C(=O)N2CCCC[C@H]2C(=O)O[C@H]([C@H](C)C[C@@H]2CC[C@H](n3cnnn3)[C@H](OC)C2)CC(=O)[C@H](C)/C=C(\C)[C@@H](O)[C@@H](OC)C(=O)[C@H](C)C[C@H](C)/C=C/C=C/C=C/1C [zotarolimus]
Procedure, shortened: as §1

idasanutlin = compound: COc1cc(C(=O)O)ccc1NC(=O)[C@@H]1N[C@@H](CC(C)(C)C)[C@](C#N)(c2ccc(Cl)cc2F)[C@H]1c1cccc(Cl)c1F [idasanutlin]
Procedure, shortened: as §1

alisertib = compound: COc1cc(Nc2ncc3c(n2)-c2ccc(Cl)cc2C(c2c(F)cccc2OC)=NC3)ccc1C(=O)O [alisertib]
Procedure, shortened: as §1

[5] = compound: COc1cc2nc(-c3cc(F)ccc3O)nc(N[C@@H]3CNC[C@H]3C(C)(C)O)c2cc1OC
Procedure, shortened: as §1

gefitinib = compound: COc1cc2ncnc(Nc3ccc(F)c(Cl)c3)c2cc1OCCCN1CCOCC1 [gefitinib]
Procedure, shortened: as §1

[6] = compound: COc1cccc2cc(-c3nc([C@H]4CC[C@H](C(=O)O)CC4)n4ncnc(N)c34)[nH]c12
Procedure, shortened: as §1

lapatinib = compound: CS(=O)(=O)CCNCc1ccc(-c2ccc3ncnc(Nc4ccc(OCc5cccc(F)c5)c(Cl)c4)c3c2)o1 [lapatinib]
Procedure, shortened: as §1

pictilisib = compound: CS(=O)(=O)N1CCN(Cc2cc3nc(-c4cccc5[nH]ncc45)nc(N4CCOCC4)c3s2)CC1 [pictilisib]
Procedure, shortened: as §1

Target	log2 fold change (saracatinib)	log2 fold change (sotrastaurin)	log2 fold change (alvocidib)	log2 fold change (Tubastatin A)	log2 fold change [1]	log2 fold change (defactinib)	log2 fold change (rucaparib)	log2 fold change [2]	log2 fold change (encorafenib)	log2 fold change [3]	log2 fold change [4]	log2 fold change (filanesib)	log2 fold change (zotarolimus)	log2 fold change (idasanutlin)	log2 fold change (alisertib)	log2 fold change [5]	log2 fold change (gefitinib)	log2 fold change [6]	log2 fold change (lapatinib)	log2 fold change (pictilisib)
SAMM50 (UniProt Q9Y512)	inactive: 0.053	inactive: 0.036	inactive: 0.005	inactive: -0.04	inactive: 0.001	inactive: 0.001	inactive: -0.023	inactive: -0.034	inactive: 0.005	inactive: 0.038	inactive: 0.007	inactive: -0.043	inactive: -0.019	inactive: -0.008	inactive: -0.082	inactive: -0.05	inactive: 0.007	inactive: 0.039	inactive: -0.015	inactive: 0.027
RTCB (UniProt Q9Y3I0)	inactive: -0.007	inactive: 0.007	inactive: 0.031	inactive: -0.044	inactive: -0.003	inactive: 0.064	inactive: 0.037	inactive: 0.013	inactive: 0.041	inactive: 0.006	inactive: -0.063	inactive: 0.042	inactive: 0.006	inactive: 0.032	inactive: -0.023	inactive: -0.03	inactive: -0.005	inactive: -0.047	inactive: 0.061	inactive: 0.008
SDE2 (UniProt Q6IQ49)	inactive: -0.03	inactive: 0.022	inactive: 0.103	inactive: 0.085	inactive: 0.01	inactive: 0.015	inactive: -0.09	inactive: -0.072	inactive: 0.014	inactive: 0.007	inactive: -0.06	inactive: -0.025	inactive: -0.032	inactive: 0.009	inactive: 0.034	inactive: 0.033	inactive: -0.007	inactive: 0.021	inactive: -0.058	inactive: 0.021
SEC24D isoform 2 (UniProt O94855)	inactive: 0.017	inactive: -0.09	inactive: -0.035	inactive: 0.034	inactive: 0.039	inactive: -0.042	inactive: -0.035	inactive: -0.085	inactive: 0.062	inactive: -0.039	inactive: 0.065	inactive: 0.035	inactive: 0.017	inactive: 0.003	inactive: -0.053	inactive: 0.014	inactive: 0.008	inactive: 0.013	inactive: 0.011	inactive: -0.024
SEC22B (UniProt O75396)	inactive: 0.011	inactive: 0.002	inactive: -0.044	inactive: 0	inactive: 0.007	inactive: -0.055	inactive: -0.063	inactive: 0.02	inactive: 0.01	inactive: 0.011	inactive: 0.057	inactive: -0.031	inactive: 0.055	inactive: -0.009	inactive: -0.083	inactive: 0.034	inactive: 0.017	inactive: -0.031	inactive: 0.031	inactive: 0.019
SCAMP4 (UniProt Q969E2)	inactive: 0.072	inactive: 0.045	inactive: -0.044	inactive: -0.023	inactive: 0.023	inactive: -0.02	inactive: 0.019	inactive: 0.011	inactive: -0.03	inactive: 0.052	inactive: -0.051	inactive: 0.019	inactive: -0.038	inactive: -0.013	inactive: -0.075	inactive: 0.006	inactive: 0.005	inactive: 0.102	inactive: -0.051	inactive: 0.004
RSU1 (UniProt Q15404)	inactive: -0.007	inactive: 0.031	inactive: 0.013	inactive: -0.006	inactive: -0.055	inactive: -0.04	inactive: -0.027	inactive: -0.023	inactive: -0.016	inactive: -0.006	inactive: -0.036	inactive: -0.011	inactive: -0.016	inactive: -0.01	inactive: -0.062	inactive: 0.012	inactive: -0.006	inactive: 0.002	inactive: -0.006	inactive: -0.004
SCFD2 (UniProt Q8WU76)	inactive: -0.094	inactive: -0.011	inactive: 0.008	inactive: 0.039	inactive: 0.088	inactive: -0.052	inactive: 0.198	inactive: 0.167	inactive: 0.085	inactive: -0.175	inactive: -0.077	inactive: 0.026	inactive: 0.044	inactive: 0.274	inactive: -0.137	inactive: -0.039	inactive: -0.021	inactive: -0.064	inactive: 0.074	inactive: -0.151
SEC24C (UniProt P53992)	inactive: 0.032	inactive: -0.034	inactive: -0.075	inactive: 0.044	inactive: 0.031	inactive: -0.081	inactive: -0.012	inactive: 0.012	inactive: 0.042	inactive: -0.03	inactive: 0.074	inactive: -0.012	inactive: 0.017	inactive: -0.033	inactive: -0.013	inactive: 0.063	inactive: 0.011	inactive: -0.02	inactive: 0.031	inactive: -0.044
SCRN3 (UniProt Q0VDG4)	inactive: 0.106	inactive: -0.002	inactive: 0.002	inactive: 0.02	inactive: 0.001	inactive: -0.106	inactive: 0.012	inactive: 0.002	inactive: -0.048	inactive: -0.018	inactive: -0.018	inactive: -0.104	inactive: -0.005	inactive: -0.006	inactive: -0.075	inactive: -0.096	inactive: 0.013	inactive: -0.004	inactive: 0.017	inactive: -0.03
SARNP (UniProt P82979)	inactive: 0.007	inactive: 0.075	inactive: 0.121	inactive: -0.032	inactive: -0.011	inactive: 0.073	inactive: -0.029	inactive: -0.064	inactive: -0.085	inactive: 0.062	inactive: -0.128	inactive: 0.044	inactive: -0.038	inactive: 0.066	inactive: -0.065	inactive: 0.04	inactive: -0.012	inactive: 0.083	inactive: -0.079	inactive: 0.057
SART3, A0A499FI31	inactive: -0.011	inactive: -0.13	active: -0.291	inactive: 0.035	inactive: 0.021	active: -0.448	inactive: -0.156	inactive: -0.041	inactive: 0.025	inactive: 0.001	inactive: 0.059	inactive: -0.036	inactive: 0.054	inactive: -0.044	inactive: -0.042	inactive: -0.192	inactive: -0.019	inactive: -0.019	inactive: 0.016	inactive: -0.083
RRP15 (UniProt Q9Y3B9)	inactive: 0.042	inactive: 0.028	inactive: 0.001	inactive: -0.014	inactive: -0.035	inactive: 0.024	inactive: -0.025	inactive: -0.033	inactive: -0.032	inactive: 0.068	inactive: -0.049	inactive: 0.012	inactive: 0.033	inactive: 0.037	inactive: -0.09	inactive: -0.077	inactive: 0.016	inactive: 0.027	inactive: 0.013	inactive: -0.098
SDHAF3 (UniProt Q9NRP4)	inactive: 0.091	inactive: -0.031	inactive: -0.009	inactive: -0.133	inactive: 0.015	inactive: -0.051	inactive: 0.023	inactive: -0.155	inactive: -0.024	inactive: 0.013	inactive: -0.049	inactive: -0.11	inactive: 0.021	inactive: -0.025	inactive: -0.044	inactive: -0.066	inactive: 0.216	inactive: 0.027	inactive: -0.065	inactive: 0.151
SACS (UniProt Q9NZJ4)	inactive: -0.034	inactive: 0	inactive: 0.017	inactive: -0.087	inactive: 0	inactive: 0.085	inactive: -0.054	inactive: -0.079	inactive: 0.076	inactive: 0.061	inactive: -0.005	inactive: -0.051	inactive: 0.028	inactive: 0.085	inactive: -0.11	inactive: 0.174	inactive: -0.014	inactive: 0.071	inactive: -0.035	inactive: 0.027
S100P (UniProt P25815)	inactive: -0.152	inactive: 0.162	inactive: -0.039	inactive: 0.079	inactive: 0.047	inactive: -0.075	inactive: -0.088	inactive: 0.001	inactive: -0.068	inactive: 0.049	inactive: 0.151	inactive: 0.081	inactive: 0.041	inactive: -0.033	inactive: -0.013	inactive: -0.031	inactive: -0.002	inactive: 0.022	inactive: -0.086	inactive: 0.087

Single records, as listed above. Values in the order: log2 fold change (saracatinib)	log2 fold change (sotrastaurin)	log2 fold change (alvocidib)	log2 fold change (Tubastatin A)	log2 fold change [1]	log2 fold change (defactinib)	log2 fold change (rucaparib)	log2 fold change [2]	log2 fold change (encorafenib)	log2 fold change [3]	log2 fold change [4]	log2 fold change (filanesib)	log2 fold change (zotarolimus)	log2 fold change (idasanutlin)	log2 fold change (alisertib)	log2 fold change [5]	log2 fold change (gefitinib)	log2 fold change [6]	log2 fold change (lapatinib)	log2 fold change (pictilisib)
SDE2 (UniProt Q6IQ49) is entered as inactive: -0.03	inactive: 0.022	inactive: 0.103	inactive: 0.085	inactive: 0.01	inactive: 0.015	inactive: -0.09	inactive: -0.072	inactive: 0.014	inactive: 0.007	inactive: -0.06	inactive: -0.025	inactive: -0.032	inactive: 0.009	inactive: 0.034	inactive: 0.033	inactive: -0.007	inactive: 0.021	inactive: -0.058	inactive: 0.021
SDHAF3 (UniProt Q9NRP4) is entered as inactive: 0.091	inactive: -0.031	inactive: -0.009	inactive: -0.133	inactive: 0.015	inactive: -0.051	inactive: 0.023	inactive: -0.155	inactive: -0.024	inactive: 0.013	inactive: -0.049	inactive: -0.11	inactive: 0.021	inactive: -0.025	inactive: -0.044	inactive: -0.066	inactive: 0.216	inactive: 0.027	inactive: -0.065	inactive: 0.151
